Measurements: the supplement of paper PMC12067093, “Discovery and optimisation of a covalent ligand for TRIM25 and its application to targeted protein ubiquitination” (Chemical Science, 2025)
This is one part of the list.

Sequences of proteins named here, by UniProt entry; tags and fusion partners are left off. A change or cut given only in a name is not applied to a line headed by its entry.
UniProt O60333: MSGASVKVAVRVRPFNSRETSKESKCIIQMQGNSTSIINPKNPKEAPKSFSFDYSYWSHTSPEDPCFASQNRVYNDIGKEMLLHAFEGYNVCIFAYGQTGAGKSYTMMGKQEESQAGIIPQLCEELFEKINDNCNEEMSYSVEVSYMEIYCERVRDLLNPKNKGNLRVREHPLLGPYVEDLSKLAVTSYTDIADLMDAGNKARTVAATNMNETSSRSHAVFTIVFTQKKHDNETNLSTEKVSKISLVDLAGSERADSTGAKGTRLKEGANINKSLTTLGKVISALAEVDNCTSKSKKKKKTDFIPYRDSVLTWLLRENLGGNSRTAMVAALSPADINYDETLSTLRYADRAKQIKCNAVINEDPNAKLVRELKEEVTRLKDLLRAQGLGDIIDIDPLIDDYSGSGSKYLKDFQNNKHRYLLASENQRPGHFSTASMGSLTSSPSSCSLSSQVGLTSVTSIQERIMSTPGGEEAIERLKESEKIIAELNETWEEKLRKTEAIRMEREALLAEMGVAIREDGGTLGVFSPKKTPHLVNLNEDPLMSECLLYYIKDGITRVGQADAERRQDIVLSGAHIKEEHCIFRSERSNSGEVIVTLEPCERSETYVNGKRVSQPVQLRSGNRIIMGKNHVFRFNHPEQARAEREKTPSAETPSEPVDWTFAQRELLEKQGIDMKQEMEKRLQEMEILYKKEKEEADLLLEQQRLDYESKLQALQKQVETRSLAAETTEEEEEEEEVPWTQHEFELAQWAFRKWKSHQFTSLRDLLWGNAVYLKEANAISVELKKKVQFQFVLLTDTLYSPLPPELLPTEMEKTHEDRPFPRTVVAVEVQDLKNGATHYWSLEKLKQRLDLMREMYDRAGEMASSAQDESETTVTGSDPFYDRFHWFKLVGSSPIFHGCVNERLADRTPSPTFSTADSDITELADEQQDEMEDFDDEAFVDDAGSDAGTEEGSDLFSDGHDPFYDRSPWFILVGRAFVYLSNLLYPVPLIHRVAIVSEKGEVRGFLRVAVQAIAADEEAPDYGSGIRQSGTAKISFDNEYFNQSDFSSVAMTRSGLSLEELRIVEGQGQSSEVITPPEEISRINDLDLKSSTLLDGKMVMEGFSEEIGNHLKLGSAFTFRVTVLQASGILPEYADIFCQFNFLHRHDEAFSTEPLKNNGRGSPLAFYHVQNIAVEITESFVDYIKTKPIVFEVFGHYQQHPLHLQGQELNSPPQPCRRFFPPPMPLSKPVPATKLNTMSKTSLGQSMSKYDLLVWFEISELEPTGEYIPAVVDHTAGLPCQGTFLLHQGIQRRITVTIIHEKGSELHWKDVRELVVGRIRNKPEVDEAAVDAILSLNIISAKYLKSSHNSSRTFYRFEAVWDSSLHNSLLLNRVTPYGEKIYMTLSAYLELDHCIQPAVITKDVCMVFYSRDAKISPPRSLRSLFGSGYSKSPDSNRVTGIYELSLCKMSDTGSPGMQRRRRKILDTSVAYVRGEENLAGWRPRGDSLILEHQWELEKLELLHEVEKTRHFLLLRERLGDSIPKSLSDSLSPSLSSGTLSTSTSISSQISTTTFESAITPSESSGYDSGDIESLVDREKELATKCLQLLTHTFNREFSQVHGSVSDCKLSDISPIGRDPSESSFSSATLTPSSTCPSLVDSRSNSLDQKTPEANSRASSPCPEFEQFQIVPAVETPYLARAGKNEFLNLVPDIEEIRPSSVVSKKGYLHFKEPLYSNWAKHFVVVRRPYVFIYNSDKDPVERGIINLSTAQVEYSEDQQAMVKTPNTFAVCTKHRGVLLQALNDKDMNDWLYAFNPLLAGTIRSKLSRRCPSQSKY
UniProt Q9H8E8: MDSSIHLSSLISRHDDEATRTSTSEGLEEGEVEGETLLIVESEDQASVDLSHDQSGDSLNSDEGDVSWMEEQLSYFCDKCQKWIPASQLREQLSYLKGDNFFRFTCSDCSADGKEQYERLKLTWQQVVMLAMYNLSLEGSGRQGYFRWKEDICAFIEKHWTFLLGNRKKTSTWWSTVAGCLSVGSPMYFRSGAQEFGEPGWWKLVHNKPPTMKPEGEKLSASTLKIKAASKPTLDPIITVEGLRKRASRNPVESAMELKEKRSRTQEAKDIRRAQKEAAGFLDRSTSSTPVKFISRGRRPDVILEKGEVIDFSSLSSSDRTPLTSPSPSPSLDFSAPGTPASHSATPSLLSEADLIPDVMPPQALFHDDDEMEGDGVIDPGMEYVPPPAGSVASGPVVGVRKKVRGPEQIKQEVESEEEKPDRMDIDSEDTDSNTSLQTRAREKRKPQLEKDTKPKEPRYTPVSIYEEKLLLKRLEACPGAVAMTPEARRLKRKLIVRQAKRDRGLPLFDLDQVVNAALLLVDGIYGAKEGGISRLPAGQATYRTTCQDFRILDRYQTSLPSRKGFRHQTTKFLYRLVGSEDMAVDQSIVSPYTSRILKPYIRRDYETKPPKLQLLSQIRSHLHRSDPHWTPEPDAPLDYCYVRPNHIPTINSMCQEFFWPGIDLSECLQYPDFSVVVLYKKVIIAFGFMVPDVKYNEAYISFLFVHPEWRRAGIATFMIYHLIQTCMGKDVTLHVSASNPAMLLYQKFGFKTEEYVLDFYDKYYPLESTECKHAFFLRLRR
UniProt Q9UGL1: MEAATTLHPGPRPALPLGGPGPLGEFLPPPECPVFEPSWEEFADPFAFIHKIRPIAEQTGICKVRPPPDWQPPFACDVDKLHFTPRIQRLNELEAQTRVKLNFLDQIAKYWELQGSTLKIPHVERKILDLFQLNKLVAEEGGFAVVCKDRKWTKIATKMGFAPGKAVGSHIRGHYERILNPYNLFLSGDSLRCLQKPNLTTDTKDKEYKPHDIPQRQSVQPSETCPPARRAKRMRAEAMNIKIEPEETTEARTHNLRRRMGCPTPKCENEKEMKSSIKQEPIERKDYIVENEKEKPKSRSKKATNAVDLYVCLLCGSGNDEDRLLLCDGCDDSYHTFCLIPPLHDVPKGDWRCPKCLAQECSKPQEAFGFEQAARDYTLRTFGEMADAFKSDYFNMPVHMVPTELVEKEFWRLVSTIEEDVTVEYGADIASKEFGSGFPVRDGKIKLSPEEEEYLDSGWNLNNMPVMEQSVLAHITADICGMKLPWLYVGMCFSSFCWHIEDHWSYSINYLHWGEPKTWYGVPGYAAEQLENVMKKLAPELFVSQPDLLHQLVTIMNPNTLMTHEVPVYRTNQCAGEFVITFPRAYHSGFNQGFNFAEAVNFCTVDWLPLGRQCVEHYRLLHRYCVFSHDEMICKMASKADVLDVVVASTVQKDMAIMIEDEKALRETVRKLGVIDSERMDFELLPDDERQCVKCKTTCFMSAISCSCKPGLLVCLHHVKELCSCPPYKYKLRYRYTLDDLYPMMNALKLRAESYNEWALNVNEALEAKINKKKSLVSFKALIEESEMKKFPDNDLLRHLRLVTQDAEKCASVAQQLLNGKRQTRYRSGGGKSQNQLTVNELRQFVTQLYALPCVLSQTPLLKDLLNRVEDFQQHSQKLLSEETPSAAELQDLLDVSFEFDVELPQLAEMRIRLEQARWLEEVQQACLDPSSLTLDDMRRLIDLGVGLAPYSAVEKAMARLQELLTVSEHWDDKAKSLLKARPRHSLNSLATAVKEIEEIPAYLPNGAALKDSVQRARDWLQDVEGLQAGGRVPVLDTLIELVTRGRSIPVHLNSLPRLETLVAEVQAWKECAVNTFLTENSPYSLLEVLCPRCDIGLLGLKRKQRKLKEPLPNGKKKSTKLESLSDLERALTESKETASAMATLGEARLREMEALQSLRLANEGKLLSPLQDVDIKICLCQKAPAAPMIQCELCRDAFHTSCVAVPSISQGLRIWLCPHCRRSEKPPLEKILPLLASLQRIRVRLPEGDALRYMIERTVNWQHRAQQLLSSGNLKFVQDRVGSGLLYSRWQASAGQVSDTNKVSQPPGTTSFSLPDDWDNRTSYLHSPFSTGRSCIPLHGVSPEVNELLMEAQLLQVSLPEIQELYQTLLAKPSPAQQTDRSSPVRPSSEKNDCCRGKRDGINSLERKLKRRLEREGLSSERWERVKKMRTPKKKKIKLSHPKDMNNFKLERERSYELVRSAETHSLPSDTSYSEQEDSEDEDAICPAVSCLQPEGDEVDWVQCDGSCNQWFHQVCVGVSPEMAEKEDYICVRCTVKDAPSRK
UniProt O94819: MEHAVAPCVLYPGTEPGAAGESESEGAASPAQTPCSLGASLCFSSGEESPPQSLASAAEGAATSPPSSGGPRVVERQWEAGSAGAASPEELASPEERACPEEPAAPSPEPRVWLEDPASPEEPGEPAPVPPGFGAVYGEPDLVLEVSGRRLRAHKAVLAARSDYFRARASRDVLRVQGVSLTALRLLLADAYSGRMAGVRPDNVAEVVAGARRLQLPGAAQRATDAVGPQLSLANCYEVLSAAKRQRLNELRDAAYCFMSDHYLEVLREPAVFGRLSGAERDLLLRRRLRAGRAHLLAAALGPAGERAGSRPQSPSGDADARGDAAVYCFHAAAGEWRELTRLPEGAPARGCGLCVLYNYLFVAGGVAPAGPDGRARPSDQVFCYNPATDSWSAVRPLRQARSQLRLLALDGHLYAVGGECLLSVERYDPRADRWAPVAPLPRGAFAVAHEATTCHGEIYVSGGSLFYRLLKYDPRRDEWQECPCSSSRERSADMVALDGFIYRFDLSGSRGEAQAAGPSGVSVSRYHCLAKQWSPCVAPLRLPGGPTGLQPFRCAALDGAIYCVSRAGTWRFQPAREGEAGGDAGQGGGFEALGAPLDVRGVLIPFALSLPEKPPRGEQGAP
UniProt Q63ZY3: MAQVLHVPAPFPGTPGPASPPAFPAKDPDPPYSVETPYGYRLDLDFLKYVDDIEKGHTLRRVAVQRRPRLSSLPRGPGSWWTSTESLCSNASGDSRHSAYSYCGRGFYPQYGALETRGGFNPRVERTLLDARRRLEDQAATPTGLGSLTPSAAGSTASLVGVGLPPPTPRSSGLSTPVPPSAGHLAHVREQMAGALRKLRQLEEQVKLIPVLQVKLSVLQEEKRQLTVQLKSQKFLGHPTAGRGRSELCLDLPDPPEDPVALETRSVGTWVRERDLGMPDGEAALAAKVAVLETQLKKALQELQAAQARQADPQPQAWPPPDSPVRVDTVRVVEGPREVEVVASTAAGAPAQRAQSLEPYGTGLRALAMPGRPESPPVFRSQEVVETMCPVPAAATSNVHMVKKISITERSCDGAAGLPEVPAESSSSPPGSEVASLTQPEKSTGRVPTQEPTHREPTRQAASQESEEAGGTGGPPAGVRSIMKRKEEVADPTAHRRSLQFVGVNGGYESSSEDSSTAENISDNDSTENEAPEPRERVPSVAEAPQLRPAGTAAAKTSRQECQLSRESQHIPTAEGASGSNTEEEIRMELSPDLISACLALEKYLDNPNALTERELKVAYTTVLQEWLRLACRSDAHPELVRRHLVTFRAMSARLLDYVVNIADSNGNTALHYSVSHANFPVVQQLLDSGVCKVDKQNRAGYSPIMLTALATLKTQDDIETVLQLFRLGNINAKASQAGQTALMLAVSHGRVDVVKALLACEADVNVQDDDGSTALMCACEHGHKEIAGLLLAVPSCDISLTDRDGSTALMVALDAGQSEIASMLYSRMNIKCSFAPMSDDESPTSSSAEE
UniProt Q9P2N6: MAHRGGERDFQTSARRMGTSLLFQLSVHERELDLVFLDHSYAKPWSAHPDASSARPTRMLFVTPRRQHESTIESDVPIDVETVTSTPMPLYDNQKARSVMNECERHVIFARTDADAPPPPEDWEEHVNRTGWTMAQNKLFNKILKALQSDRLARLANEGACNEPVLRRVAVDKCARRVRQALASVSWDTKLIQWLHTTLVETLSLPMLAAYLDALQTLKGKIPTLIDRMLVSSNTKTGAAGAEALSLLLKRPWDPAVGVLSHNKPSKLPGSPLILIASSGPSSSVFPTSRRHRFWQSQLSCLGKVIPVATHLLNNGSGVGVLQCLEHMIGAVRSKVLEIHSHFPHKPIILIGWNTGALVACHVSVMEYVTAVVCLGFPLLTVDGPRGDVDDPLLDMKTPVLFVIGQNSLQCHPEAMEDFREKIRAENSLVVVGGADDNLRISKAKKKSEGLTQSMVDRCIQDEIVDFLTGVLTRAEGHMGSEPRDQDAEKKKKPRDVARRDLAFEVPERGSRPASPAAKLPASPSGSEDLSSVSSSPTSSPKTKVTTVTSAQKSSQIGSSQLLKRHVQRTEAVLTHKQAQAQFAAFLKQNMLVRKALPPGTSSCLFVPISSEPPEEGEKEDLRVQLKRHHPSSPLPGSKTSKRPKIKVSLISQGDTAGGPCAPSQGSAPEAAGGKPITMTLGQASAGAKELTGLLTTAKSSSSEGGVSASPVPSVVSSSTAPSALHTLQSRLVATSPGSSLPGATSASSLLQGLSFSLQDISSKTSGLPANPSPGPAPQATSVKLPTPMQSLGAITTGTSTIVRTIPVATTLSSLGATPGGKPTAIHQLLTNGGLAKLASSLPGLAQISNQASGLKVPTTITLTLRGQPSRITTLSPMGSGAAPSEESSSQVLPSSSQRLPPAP

Compound: CC1Cc2ccccc2N1C(=O)C1CCCN(C1)C(=O)CCl (mixture of isomers) [TRIM25 ligand 11 (diastereomer mixture)]
Assay: probe-labelled cysteine peptide fold change vs DMSO (competition) (log2 fold change); higher = less target engagement (more negative = stronger competition)
Details: THP-1, incubation time: 4 h
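Also: competitive chemoproteomic profiling in live THP-1 cells with an iodoacetamide desthiobiotin (IA-DTB) probe, comparing probe-labelled peptide intensities in compound-treated cells against DMSO-treated controls.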

## KIAA0586_Q9BVV6_293_YSVKPEHPNLGSCNPSLYNTFASK (UniProt Q9BVV6)
10 µM
  probe-labelled cysteine peptide fold change: 0.0534
50 µM
  probe-labelled cysteine peptide fold change: 0.00694

## ITPR2_Q14571_1246_MNEVMNLAHTFLQNFCR (UniProt Q14571)
10 µM
  probe-labelled cysteine peptide fold change: -0.141
50 µM
  probe-labelled cysteine peptide fold change: -0.166

## JUND_P17535_336_VLSHVNSGCQLLPQHQVPAY (UniProt P17535)
10 µM
  probe-labelled cysteine peptide fold change: 0.0837
50 µM
  probe-labelled cysteine peptide fold change: 0.179

## KIF1B_O60333_581_EEHCIFR (UniProt O60333)
10 µM
  probe-labelled cysteine peptide fold change: -0.165
50 µM
  probe-labelled cysteine peptide fold change: 0.154

## KAT14_Q9H8E8_478_RLEACPGAVAMTPEAR (UniProt Q9H8E8)
10 µM
  probe-labelled cysteine peptide fold change: 0.0372
50 µM
  probe-labelled cysteine peptide fold change: 0.00248

## KDM5B_Q9UGL1_1221_IWLCPHCR (UniProt Q9UGL1)
10 µM
  probe-labelled cysteine peptide fold change: -0.112
50 µM
  probe-labelled cysteine peptide fold change: -0.0757

## KBTBD11_O94819_384_PSDQVFCYNPATDSWSAVRPLR (UniProt O94819)
10 µM
  probe-labelled cysteine peptide fold change: 0.201
50 µM
  probe-labelled cysteine peptide fold change: 0.0594

## KDM3A_Q9Y4C1_814_PACPASTSPLNWLADLTSGNVNK (UniProt Q9Y4C1)
10 µM
  probe-labelled cysteine peptide fold change: 0.0136
50 µM
  probe-labelled cysteine peptide fold change: -0.377

## KBTBD11_O94819_99_ACPEEPAAPSPEPR (UniProt O94819)
10 µM
  probe-labelled cysteine peptide fold change: -0.113
50 µM
  probe-labelled cysteine peptide fold change: -0.0056

## KANK2_Q63ZY3_389_SQEVVETMCPVPAAATSNVHMVK (UniProt Q63ZY3)
10 µM
  probe-labelled cysteine peptide fold change: 0.0031
50 µM
  probe-labelled cysteine peptide fold change: -0.293

## KEAP1_Q14145_226_QEEFFNLSHCQLVTLISR (UniProt Q14145)
10 µM
  probe-labelled cysteine peptide fold change: 0.401
50 µM
  probe-labelled cysteine peptide fold change: 0.233

## KANSL3_Q9P2N6_103_SVMNECER (UniProt Q9P2N6)
10 µM
  probe-labelled cysteine peptide fold change: -0.0366
50 µM
  probe-labelled cysteine peptide fold change: 0.0848

## KIF15_Q9NS87_999_TSVCEK (UniProt Q9NS87)
10 µM
  probe-labelled cysteine peptide fold change: 0.00181
50 µM
  probe-labelled cysteine peptide fold change: -0.0605

## KDM3B_Q7LBC6_999_YILANVGDQFCQLVMSEK (UniProt Q7LBC6)
10 µM
  probe-labelled cysteine peptide fold change: 0.122
50 µM
  probe-labelled cysteine peptide fold change: 0.15
